The values that follow come from article PMC5768398.

Chains of the proteins cited; added tags and fusions are not shown.
UniProt P63104: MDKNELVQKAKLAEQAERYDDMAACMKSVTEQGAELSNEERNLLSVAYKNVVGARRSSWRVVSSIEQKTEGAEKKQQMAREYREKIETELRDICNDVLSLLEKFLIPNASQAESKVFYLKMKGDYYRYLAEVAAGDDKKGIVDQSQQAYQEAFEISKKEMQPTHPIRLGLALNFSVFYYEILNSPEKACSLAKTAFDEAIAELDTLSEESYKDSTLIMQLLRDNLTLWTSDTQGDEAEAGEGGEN

These are yes or no findings as the source states them, for the method shown. Binding seen in cells or lysates may run through a third protein. Some binding calls cover weakened binding; strength is not graded here. For some assays here: Sequences can lack the tags named with a protein.

In experiment [1] the target is T1, FoxM1 (human (endogenous in SiHa)) (UniProt Q08050).
T1 sequence: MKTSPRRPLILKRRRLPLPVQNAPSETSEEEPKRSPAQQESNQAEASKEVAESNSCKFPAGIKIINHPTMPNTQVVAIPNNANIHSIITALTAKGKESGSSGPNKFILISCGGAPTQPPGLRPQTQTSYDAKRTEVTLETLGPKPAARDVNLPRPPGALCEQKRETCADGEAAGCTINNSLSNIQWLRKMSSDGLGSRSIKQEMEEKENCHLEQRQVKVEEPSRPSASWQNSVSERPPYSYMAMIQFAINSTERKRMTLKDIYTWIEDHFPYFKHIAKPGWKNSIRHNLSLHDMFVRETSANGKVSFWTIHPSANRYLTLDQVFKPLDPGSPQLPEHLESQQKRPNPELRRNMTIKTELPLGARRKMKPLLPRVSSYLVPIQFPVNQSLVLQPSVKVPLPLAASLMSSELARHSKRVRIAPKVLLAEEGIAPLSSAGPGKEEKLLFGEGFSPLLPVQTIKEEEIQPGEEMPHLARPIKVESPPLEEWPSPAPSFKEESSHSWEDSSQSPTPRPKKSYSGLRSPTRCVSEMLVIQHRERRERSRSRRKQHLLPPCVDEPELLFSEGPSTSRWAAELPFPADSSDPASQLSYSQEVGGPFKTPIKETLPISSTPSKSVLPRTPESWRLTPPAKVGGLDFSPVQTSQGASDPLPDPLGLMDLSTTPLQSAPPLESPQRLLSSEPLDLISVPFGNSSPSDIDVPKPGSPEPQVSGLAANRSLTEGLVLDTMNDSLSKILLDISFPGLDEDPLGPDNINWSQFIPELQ
As to the kind of experiment: co-IP; endogenous proteins in SiHa cell lysate; IP buffer (50 mM Tris-HCl pH 7.5, 150 mM NaCl, 1% Triton X-100, protease inhibitors); precipitated with anti-FoxM1 on Protein G agarose, Western analysis.

For experiment [2], the target named is T2, Suppressor of fused (Sufu)-GFP (UniProt Q9UMX1).
T2 sequence: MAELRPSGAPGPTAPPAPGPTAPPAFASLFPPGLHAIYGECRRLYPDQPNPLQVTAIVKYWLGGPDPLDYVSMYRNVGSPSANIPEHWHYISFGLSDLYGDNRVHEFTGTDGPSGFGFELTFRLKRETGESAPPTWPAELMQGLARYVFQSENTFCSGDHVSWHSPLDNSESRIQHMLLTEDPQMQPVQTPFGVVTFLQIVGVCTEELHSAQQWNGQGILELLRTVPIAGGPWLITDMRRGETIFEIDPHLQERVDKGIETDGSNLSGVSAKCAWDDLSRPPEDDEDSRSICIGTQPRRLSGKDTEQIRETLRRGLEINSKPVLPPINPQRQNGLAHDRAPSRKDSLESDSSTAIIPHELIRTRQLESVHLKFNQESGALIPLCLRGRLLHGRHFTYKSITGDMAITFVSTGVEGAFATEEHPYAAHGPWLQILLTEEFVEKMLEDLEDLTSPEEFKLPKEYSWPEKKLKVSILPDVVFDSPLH
Kind of experiment: co-IP; transfected HEK293T lysate; IP buffer (50 mM Tris-HCl pH 7.5, 150 mM NaCl, 1% Triton X-100, protease inhibitors); precipitated with anti-GFP on Protein G agarose, Western analysis.

Consider 14-3-3ζ (from UniProt P63104 1-245), for which, in experiment [1], the binding entry is recorded as “binds”.

For the substance 14-3-3ζ-DDK (from UniProt P63104 1-245), in experiment [2], the binding entry is “no binding”.
